This is one part of the list. Shown are side measurements of this screen, not its main read-out; they come without a call. The list favours compounds with an active or inconclusive main result. The note in brackets gives the kind of curve behind each potency; many fits are weak.

We go through 17 molecules from PubChem BioAssay AID493014 (National Center for Advancing Translational Sciences (NCATS), 2011).

A short description of the test: qHTS Assay to Find Inhibitors of Chronic Active B-Cell Receptor Signaling. To be noted: ABC-DLBCL IkBa-CBG/CBR reporter, luminescence ratio (green luciferase fused to IkBa over red control in TMD8 lymphoma cells), 4 h. The method, boiled down: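 Concentration-response series (up to 46 uM) were applied to TMD8 dual-reporter cells for 4 h at 37C with doxycycline. Green/red ratio, after filter-overlap correction, defined %Activity; red signal alone was normalised to basal cells and zero luminescence.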
On the technique in general: Quantitative high-throughput screening tests each substance at several concentrations.

Setting [1] is: measured here: CBR red luminescence, cell number.

With `COc1ccc(CCNS(=O)(=O)c2ccc3c(c2)NC(=O)C(C)S3)cc1OC` (stereo not drawn), the AC50 (usually the concentration giving half of the maximal activity seen) under setting [1] was 11.2 µM [falling, partial curve, poor fit].

As for `COc1ccc(C(=O)Nc2ccc(S(=O)(=O)NC(C)(C)C)cc2)cc1[N+](=O)[O-]`, the AC50 under setting [1] is 0.891 µM [rising, partial curve].

Turning to `COc1ccc(N(C(=O)C2CCCCC2)S(=O)(=O)c2cccc3cccnc23)cc1`, the AC50 under setting [1] was 8.91 µM [falling, partial curve].

For the molecule `Nc1nc2ccc(NC(=O)c3ccco3)cc2s1`, the AC50 under setting [1] is 15.8 µM [falling, partial curve, poor fit].

Take `O=C(CN1C(=O)NC2(CCCCCC2)C1=O)Nc1cccc(F)c1`: the AC50 under setting [1] was 18.4 µM [falling, single point].

`CCOc1ccc(/C=N/NC(=O)c2ccccc2Cl)cc1CN1CC2CC(C1)c1cccc(=O)n1C2` (stereo not drawn): the AC50 under setting [1] is 23.1 µM [falling, partial curve, poor fit].

Turning to `C=CCN(C(=O)CCC(=O)Nc1cc(C)on1)C(C(=O)NC(C)(C)C)c1cccc(OC)c1OC` (stereo not drawn), under setting [1], the AC50 was 3.55 µM [rising, partial curve, poor fit].

With `O=C(Nc1ccc(N2CCN(C(=O)c3ccccc3)CC2)c(Cl)c1)c1cccnc1`, the AC50 under setting [1] is 14.6 µM [falling, single point].

`c1ccc(CNc2c3ccccc3nc3ccccc23)cc1`: the AC50 under setting [1] was 14.1 µM [falling, single point].

As for `O=C(O)C1C2C=CC(O2)C1C(=O)Nc1ccc2c(c1)OCCO2` (stereo not drawn), the AC50 under setting [1] is 35.5 µM [falling, single point].

Turning to `CCOC(=O)c1ccc(N=NN(C)C)cc1`, under setting [1], the AC50 was 1.12 µM [rising, partial curve, poor fit].

As for `C[C@@H](NC(=O)[C@@H]1Cc2ccccc2CN1C(=O)OC(C)(C)C)C(=O)NC1CCCCC1`, the AC50 under setting [1] was 2.82 µM [falling, partial curve].

With `O=C(Nc1ccccc1)c1nnsc1S(=O)(=O)c1ccc(Cl)cc1`, the AC50 by setting is: under setting [1], 7.94 µM [falling, partial curve]; (measured here: IkBa-CBG green luminescence) 12.6 µM [rising, partial curve, poor fit].

Consider `CCOc1ccc(S(=O)(=O)Nc2cc(SCC(=O)O)c(O)c3ccccc23)cc1`, for which the AC50 under setting [1] is 35.5 µM [falling, single point].

`COc1ccc(OCc2cccc(C(=O)NN)c2)cc1`: the AC50 under setting [1] is 7.08 µM [falling, full curve].

With `Cc1ccsc1C(=O)OCc1nc2ccccc2c(=O)[nH]1`, the concentration at half-maximal activity (AC50) under setting [1] is 16.4 µM [falling, single point].

In the case of `COc1ccc(-n2nc(C(=O)NCC(=O)N3CCOCC3)c3ccccc3c2=O)cc1Cl`, the AC50 under setting [1] is 12.6 µM [rising, partial curve, poor fit].
